For this assay, the target named is NFκB1 (mouse (endogenous in MC3T3-E1)). The assay can be described thus: co-IP; IP with NFκB1 antibody from MC3T3-E1 protein extracts, IgG as negative control; blots for RelB, NPAS1 and p50.

No constants are given. Whether binding was seen depends on the method and setting. In cells and extracts the contact can be indirect. Binding can be weak; no strength is given.

B1: RelB (protein, UniProt Q04863 1-558)
chain: MPSRRAARESAPELGALGSSDLSSLSLTVSRTTDELEIIDEYIKENGFGLDGTQLSEMPRLVPRGPASLSSVTLGPAAPPPPATPSWSCTLGRLVSPGPCPRPYLVITEQPKQRGMRFRYECEGRSAGSILGESSTEASKTLPAIELRDCGGLREVEVTACLVWKDWPHRVHPHSLVGKDCTDGVCRVRLRPHVSPRHSFNNLGIQCVRKKEIEAAIERKIQLGIDPYNAGSLKNHQEVDMNVVRICFQASYRDQQGHLHRMDPILSEPVYDKKSTNTSELRICRINKESGPCTGGEELYLLCDKVQKEDISVVFSTASWEGRADFSQADVHRQIAIVFKTPPYEDLEISEPVTVNVFLQRLTDGVCSEPLPFTYLPRDHDSYGVDKKRKRGLPDVLGELSSSDPHGIESKRRKKKPVFLDHFLPGHSSGLFLPPSALQPADSDFFPASISLPGLEPPGGPDLLDDGFAYDPSAPTLFTMLDLLPPAPPLASAVVGSGGAGATVVESSGPEPLSLDSFAAPGPGDVGTASLVGSNMFPNQYREAAFGGGLLSPGPEAT
Take B1: the binding result is on record as “binds”.

B2: NPAS1 (protein, UniProt P97459 1-594)
chain: MATPYPRSGGRGEVKCGGGRGAGVPWDFLPGLMVKAPPGPCLQAQRKEKSRNAARWRRGKENLEFFELAKLLPLPGAISSQLDKASIVRLSVTYLRLRRFAALGAPPWGLRAVGPPAGLAPGRRGPVALVSEVFEQHLGGHILQSLDGFVFALNQEGKFLYISETVSIYLGLSQVELTGSSVFDYIHPGDHSEVLEQLGLRAASIGPPTPPSVSSSSSSSSSSLVDTPEIEASPTEASPAFRAQERSFFVRMKSTLTKRGLNVKASGYKVIHVTGRLRARALGLVALGHTLPPAPLAELPLHGHMIVFRLSLGLTILACESRVSDHMDMGPSELVGRSCYQFVHGQDATRIRQSHLDLLDKGQVVTGYYRWLQRAGGFVWLQSVATVAGNGKSTGEHHVLWVSHVLSNAEGSQTPLDAFQLPAIVSQEEPSRPGPEPTEEEPPVDGKQAVPADQDKDKDPQARGKRIKVEASPKEARGSEDSGEEELSDPPAPPRPEFTSVIRAGALKHDPVLPWGLTTPGDPSPALLHAGFLPPVVRGLCTPGTIRYGPAELSLMYPHLHRLGAGPSLPEAFYPTLGLPYPGPTGTRVQRKGD
Turning to B2, the binding entry is given as “no binding”.

For the origin of these results see paper PMC10171860.
